Only a part is listed here, and it is no random draw.

The test concerns TOV-21G. The test is described as follows: cell viability relative to DMSO control (MTS) (fraction of DMSO control); higher = more viable cells / less growth inhibition. The note with it: 10 µM; 48 h. Here is the method: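 SCADS inhibitor kit III (367 inhibitors) screened at 10 µM final concentration on TOV-21G (HNF-1ß positive) and ES2 (HNF-1ß negative) ovarian clear cell carcinoma cells seeded at 5000 cells/well in 96-well plates. Cell viability was read by MTS assay 48 h after compound addition and expressed relative to DMSO control wells (N=3).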
Consider `O=C1Nc2ccc(-c3cccnc3)cc2/C1=C/c1ccc[nH]1` [JAK3 Inhibitor VI], for which the cell viability came to 0.49.

The record behind these values is the supplement of paper PMC12669797.
